Paper PMC8931250, “A SURF4-to-proteoglycan relay mechanism that mediates the sorting and secretion of a tagged variant of sonic hedgehog” (Proceedings of the National Academy of Sciences of the …, 2022)
No constants are given. Whether binding was seen depends on the method and setting. In cells and extracts the contact can be indirect. Some entries that bind do so weakly or less than the wild type.

The chains behind the UniProt entries cited, without tags or fusion partners. Where a name states a change or a piece, a line headed by the entry shows the natural chain unless it says otherwise. A line that says so, or that is headed by a name, gives the form on record, which may keep a tag or linker. Residues count along the entry.
SBP-EGFP-ShhN^25-198-HA (Q62226, residues 25-198): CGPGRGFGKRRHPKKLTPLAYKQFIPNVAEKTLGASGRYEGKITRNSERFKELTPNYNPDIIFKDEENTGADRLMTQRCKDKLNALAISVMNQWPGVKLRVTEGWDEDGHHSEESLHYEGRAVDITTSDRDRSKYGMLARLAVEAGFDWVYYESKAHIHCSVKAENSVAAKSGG
HA-tagged CW motif-depleted ShhN (ShhN^Δ33-39-HA) (not stated (human or mouse cDNA cloned)) (Q62226, form named): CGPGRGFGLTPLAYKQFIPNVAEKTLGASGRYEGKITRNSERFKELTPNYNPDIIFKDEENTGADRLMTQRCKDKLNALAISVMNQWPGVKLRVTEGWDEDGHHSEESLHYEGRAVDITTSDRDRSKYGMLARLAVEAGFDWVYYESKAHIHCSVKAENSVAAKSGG
UniProt O15260: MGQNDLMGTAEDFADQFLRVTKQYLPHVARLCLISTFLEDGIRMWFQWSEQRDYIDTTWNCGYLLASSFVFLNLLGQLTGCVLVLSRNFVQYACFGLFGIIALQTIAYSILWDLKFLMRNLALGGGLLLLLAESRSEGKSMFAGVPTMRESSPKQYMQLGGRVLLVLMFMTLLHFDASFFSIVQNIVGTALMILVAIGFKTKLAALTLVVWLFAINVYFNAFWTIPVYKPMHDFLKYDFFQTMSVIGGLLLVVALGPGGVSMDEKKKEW
SURF4^ED-AA-Myc (O15260, form named): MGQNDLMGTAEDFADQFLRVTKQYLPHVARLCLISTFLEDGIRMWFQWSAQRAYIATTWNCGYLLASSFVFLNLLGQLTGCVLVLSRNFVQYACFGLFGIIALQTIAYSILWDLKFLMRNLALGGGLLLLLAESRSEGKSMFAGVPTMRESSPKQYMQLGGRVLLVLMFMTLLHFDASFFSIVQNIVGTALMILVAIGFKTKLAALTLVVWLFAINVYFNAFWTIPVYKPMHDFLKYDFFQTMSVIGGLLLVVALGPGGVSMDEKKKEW

Experiments:
[1] = molecular target: 3xHA-tagged ShhN (ShhN^1-198-HA) (not stated (human or mouse cDNA cloned)) (UniProt Q62226); assay: co-IP; co-transfected HEK293T cells treated with 2 mM DSP cross-linker, lysates on beads conjugated with HA antibodies, immunoblot with anti-HA or anti-Myc; for the RUSH construct cells at 20 °C for 2 h with or without biotin, negative control or XYLT2 siRNA
[2] = molecular target: 3xHA-tagged ShhN (ShhN^1-198-HA) (not stated (human or mouse cDNA cloned)) (UniProt Q62226); assay: co-IP; lysates of co-transfected HEK293T cells incubated with beads conjugated with HA antibodies, immunoblot; no cross-linker mentioned; for the RUSH construct cells with or without biotin and 20 °C incubation
[3] = molecular target: SBP-EGFP-ShhN^25-198-HA (mouse) (UniProt Q62226); assay: as above
[4] = molecular target: HA-tagged CW motif-depleted ShhN (ShhN^Δ33-39-HA) (not stated (human or mouse cDNA cloned)) (UniProt Q62226); assay: co-IP; co-transfected HEK293T cells treated with 2 mM DSP cross-linker, lysates on beads conjugated with HA antibodies, immunoblot with anti-HA or anti-Myc; for the RUSH construct cells at 20 °C for 2 h with or without biotin, negative control or XYLT2 siRNA
[5] = molecular target: SBP-EGFP-ShhN^25-198-HA (mouse) (UniProt Q62226); assay: as above

Measured: binding

SURF4^ED-AA-Myc (from UniProt O15260 1-269) (receptor)
binds: [1]

Myc-tagged SURF4 (SURF4-Myc) (from UniProt O15260 1-269) (receptor)
binds: all assays above
